Laboratory results taken from PubChem BioAssay AID1347075 (National Center for Advancing Translational Sciences (NCATS), 2019).
The campaign covered roughly 400,000 compounds. About 5,500 (1.4%) were called active. The inconclusive results got no clear call from the source; some entries with a clear call stand among them for comparison. The call rests on the fitted dose curve; in most records, active means well fitted cell-killing curve with a large enough effect; inconclusive means small, poorly fitted or top-dose-only effect, or effect the other way; inactive means flat fitted curve, though single readings scatter. Potencies of inconclusive entries are doubtful fits and often do not repeat.

Assay: qHTS assay for MDR1-selective chemotherapeutics: Primary screen using the parental adenocarcinoma cell KB-3-1; further: nearly all actives have a fitted effect of over 60% in size
Details: KB-3-1 viability, CellTiter-Glo ATP luminescence, 72 h; activity change, negative = cytotoxic: at 46.1 µM (top of the series)
Outline: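 Cells are dispensed, compounds pinned in, plates held at 37 °C for 72 h, then CellTiter-Glo is added and luminescence read after 10 minutes. Cell line: parental KB-3-1 in phenol-red-free DMEM, 10% FBS.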
On the % scale 0 is the no-effect control and ±100 the full control effect; potency means the concentration at half of the fitted maximal effect.

| SMILES | Potency | activity change, negative = cytotoxic |
| --- | --- | --- |
| Cc1ccc(NC(=O)c2c(C(F)(F)F)nn(C)c2SCc2cccc(C(F)(F)F)c2)cc1C | inconclusive: 29.1 µM [cytotoxic, single point] | – |
| CCOC(=O)c1c(NC(=O)c2c(-c3ccccc3)noc2C)sc(C)c1-c1ccccc1 | active: 2.06 µM | – |
| O=C(Nc1ccc(Cl)cc1)Nc1cnccn1 | inconclusive: 16.4 µM [cytotoxic, single point] | – |
| CCOC(=O)c1c(CN(C)C)n(C)c2ccc(OC(C)=O)cc12 | inactive | – |
| O=c1c2ccccc2sc2nc(C3CCCCC3)n(Cc3ccco3)c(=O)c12 | inactive | – |
| Cc1cc(OCCCCn2ccnc2)cc(C)c1Cl | inconclusive: 29.1 µM [cytotoxic, single point] | – |
| CC(C)CCNC(=O)Nc1cc(C(=O)NCc2cccc(F)c2)ccc1N1CCCC1 | inconclusive: 29.1 µM [cytotoxic, single point] | – |
| CC(C)CC(=O)/C=C/n1c(=S)oc2ccccc21 | inconclusive: 20.6 µM [cytotoxic, single point] | – |
| COc1cc(NC(=O)c2cc(-c3ccccc3)on2)cc(OC)c1OC | inconclusive: 18.4 µM [cytotoxic, single point] | – |
| CCOC(=O)Cc1csc(NC(=O)c2cc(C)c(C)s2)n1 | inconclusive: 20.6 µM [cytotoxic, single point] | – |
| Cc1ccc(NC(=O)C2CCCN(S(=O)(=O)c3c(C)n[nH]c3C)C2)cc1C (centres undefined) | inactive | – |
| O=C(Nc1ccc(C(=O)N2CCC(O)(c3ccc(Cl)c(C(F)(F)F)c3)CC2)cc1)c1ccc(Br)o1 | inconclusive: 29.1 µM [cytotoxic, single point] | – |
| CCN1CCN(S(=O)(=O)c2ccc(Cl)c(C(=O)N(C)Cc3ccc(C(C)(C)C)cc3)c2)CC1 | inconclusive: 18.4 µM [cytotoxic, single point] | – |
| COc1ccc(OC(C)C(=O)Nc2ccccc2C(F)(F)F)cc1 (centres undefined) | inconclusive: 16.4 µM [cytotoxic, single point] | – |
| CC1C(=O)N(Cc2cn(Cc3ccco3)nn2)CCS(=O)(=O)N1Cc1ccc(-c2ccc(F)nc2)cc1 (centres undefined) | inconclusive: 29.1 µM [rising, single point] | – |
| CC(C)=NNC(=O)CN1C(=O)NC2NC(=O)NC21 (centres undefined) | inconclusive: 0.411 µM [rising, partial curve, poor fit] | – |
| O=C(NCc1ccccc1Cl)c1ccc(NC(=O)N2CCSc3ncccc32)cc1 | inactive | – |
| Brc1ccc(-c2nc3ncccn3c2NC2CCCCC2)o1 | inconclusive: 23.1 µM [cytotoxic, partial curve, poor fit] | – |
| CCOc1ccc(S(=O)(=O)N2CCCCC2)cc1NC(=O)CN1CCCC1c1cccs1 (centres undefined) | inconclusive: 20.6 µM [cytotoxic, single point] | – |
| COc1ccc(CCNC(=O)CSc2nnc3c(n2)[nH]c2ccc(F)cc23)cc1OC | inconclusive: 16.4 µM [rising, partial curve, poor fit] | – |
| CCCN(CC(=O)Nc1ccccc1C)C(=O)CCl | active: 16.4 µM | – |
| CC1(C2CC2)NC(=O)N(CC(=O)N2CCN(c3ccccc3)CC2)C1=O (centres undefined) | inactive | – |

| SMILES | Potency | activity change, negative = cytotoxic |
| --- | --- | --- |
| Cc1ccc2nc(CN3CCN(S(=O)(=O)c4ccc(F)cc4)CC3)oc2c1 | inactive | – |
| Cc1ccc2oc(C(=O)Nc3ccc(S(=O)(=O)Nc4nc(C)cc(C)n4)cc3)cc(=O)c2c1 | inactive | – |
| CC(=O)N1C=CN(C(C)=O)C(c2cn(C)c3ccccc23)C1c1cn(C)c2ccccc12 (centres undefined) | inconclusive: 18.4 µM [cytotoxic, single point] | – |
| Cc1ccc(-c2nnn(CC(=O)N(CC(=O)NC3CCCC3)c3cccc(F)c3)n2)o1 | inconclusive: 20.6 µM [rising, single point] | – |
| Oc1cccc(Nc2nc(-c3ccccc3Cl)nc3ccccc23)c1 | inconclusive: 20.6 µM [cytotoxic, single point] | – |
| Cc1cccc(NC(=O)CN2CCN(C(=O)c3oc4c(Cl)cccc4c3C)CC2)c1C | inactive | – |
| O=[N+]([O-])c1ccc(C[n+]2cccc(O)c2)cc1 | inconclusive: 2.06 µM [rising, partial curve, poor fit] | – |
| CC(C)(C)n1ncc2c(=O)n(Cc3c(Cl)cccc3Br)cnc21 | inconclusive: 23.1 µM [cytotoxic, single point] | – |
| Cc1csc2c(=O)n3c(nc12)CCCCC3 | – | inconclusive: -4.72% |
| O=C(/C=C/c1ccco1)Oc1cc(Br)cc(/C=N/NC(=O)c2ccccc2O)c1 | inconclusive: 7.31 µM [cytotoxic, partial curve, poor fit] | – |
| Cc1cc2oc3ccc(NCCCN4CCOCC4)cc3c(=O)c2cc1C | inconclusive: 29.1 µM [rising, single point] | – |
| COc1ccc(S(=O)(=O)N(C)C[C@H]2Oc3ccc(NC(=O)Nc4ccc(C(F)(F)F)cc4)cc3C(=O)N([C@H](C)CO)C[C@@H]2C)cc1 | inconclusive: 29.1 µM [cytotoxic, single point] | – |
| COc1ccc(-c2nc3ccccc3o2)cc1NC(=O)c1ccc(-c2cccc(Cl)c2C)o1 | inactive | – |
| CCCCOP(=O)(c1ccc(N(C)C)cc1)C(O)c1ccc(C(C)C)cc1 (centres undefined) | inconclusive: 11.6 µM [cytotoxic, partial curve] | – |
| N#C/C(=C(\O)Cc1ccccc1)c1nc2ccccc2[nH]1 | inconclusive: 29.1 µM [cytotoxic, single point] | – |
| Cc1ccc(S(=O)(=O)N2CCCCC2C(=O)N2CCN(Cc3ccccc3)CC2)cc1 (centres undefined) | inconclusive: 8.2 µM [cytotoxic, partial curve, poor fit] | – |
| O=C1NC(Cc2ccc(O)cc2)c2nc3ccc(Br)cc3c(=O)n2-c2cc3ccccc3cc21 (centres undefined) | inconclusive: 23.1 µM [cytotoxic, single point] | – |
| Cc1ccc(OCCC(=O)OCC(=O)c2c(N)n(CC(C)C)c(=O)n(C)c2=O)cc1 | inconclusive: 9.2 µM [cytotoxic, partial curve, poor fit] | – |
| Cc1cccc(OCCSc2ncnc3nc[nH]c23)c1 | inconclusive: 18.4 µM [cytotoxic, single point] | – |
| CCCc1cc(=O)[nH]c(SCC(=O)NC(=O)NC2CCCC2)n1 | inconclusive: 9.2 µM [cytotoxic, partial curve, poor fit] | – |
| Cc1ccc2nc(NC(=O)C3CCN(S(=O)(=O)c4cc([N+](=O)[O-])ccc4Cl)CC3)sc2c1 | inconclusive: 14.6 µM [cytotoxic, partial curve, poor fit] | – |
| CC1=C(C(=O)Nc2cccc(C(F)(F)F)c2)C2(CCN(C(C)C)CC2)OC1=O | inactive | – |

| SMILES | Potency | activity change, negative = cytotoxic |
| --- | --- | --- |
| Cc1ccn2c(NC3CCCC3)c(-c3ccccn3)nc2c1 | inconclusive: 29.1 µM [cytotoxic, single point] | – |
| Cc1ccc(Nc2ccc(S(=O)(=O)N3CCOCC3)cc2[N+](=O)[O-])c(C)c1 | inconclusive: 29.1 µM [cytotoxic, single point] | – |
| O=C(Nc1ccc(S(=O)(=O)N(Cc2ccccc2)c2ccccc2)cc1)c1ccc(F)cc1 | inconclusive: 29.1 µM [cytotoxic, single point] | – |
| COCCNC(=O)/C(C#N)=C\c1ccc(CNS(=O)(=O)c2ccccc2)o1 | – | inconclusive: 11.8% |
| CN(C)/C=N/c1ncc(C(=O)c2ccc3ccccc3c2)s1 | inconclusive: 18.4 µM [cytotoxic, partial curve, poor fit] | – |
| Cc1ccc(-c2noc(CCC(=O)NCC3CCN(Cc4cccc(C)c4)CC3)n2)cc1 | inconclusive: 29.1 µM [cytotoxic, single point] | – |
| COc1ccc(CNC(=O)C(c2ccncc2)N(C(=O)Cc2cccs2)c2ccccc2)cc1 (centres undefined) | inconclusive: 29.1 µM [rising, single point] | – |
| CCOc1cc(CNc2ccc3c(c2)OCCO3)cc(Br)c1OC | active: 1.64 µM | – |
| CN(C)S(=O)(=O)c1cccc(CSCc2cccc(S(=O)(=O)N(C)C)c2)c1 | inconclusive: 0.184 µM [cytotoxic, full curve] | – |
| C/C(=N\NC(=O)C1CC1)c1ccc2c(c1)OCCO2 | inconclusive: 29.1 µM [cytotoxic, single point] | – |
| O=C(c1cc2nc(-c3ccc(F)cc3)cc(C(F)(F)F)n2n1)N1CCCCC1c1cccnc1 (centres undefined) | active: 3.26 µM | – |
| Cc1noc(C)c1COc1cccc(C(=O)N(C)Cc2nc3ccccc3c(=O)[nH]2)c1 | inconclusive: 16.4 µM [cytotoxic, single point] | – |
| CCC(C)n1c(SCC(=O)NC(=O)c2cccn2C)nc2ccccc2c1=O (centres undefined) | inconclusive: 23.1 µM [rising, single point] | – |
| O=C(CCC1CCCCC1)NCCN1C2=NC[C@H](Cc3ccc(O)cc3)N2C[C@H]1Cc1ccc(O)cc1 | inactive | – |
| CCc1nc(SCC(=O)NCc2ccco2)c2c(=O)n(C)c(=O)n(C)c2n1 | inconclusive: 29.1 µM [cytotoxic, single point] | – |
| Nc1nonc1-n1nnc(C(=O)N/N=C/c2c(Cl)cccc2Cl)c1CSC1=NCCS1 | inconclusive: 20.6 µM [cytotoxic, single point] | – |
| CCOC(=O)Cn1c(=O)n(-c2ccc(Cl)cc2)c2nc(-c3ccc(Cl)cc3)nc(C(N)=O)c21 | inactive | – |
| Cc1ccc(C(O)(COC(=O)C(C)C)COC(=O)C(C)C)c(O)c1 | inconclusive: 23.1 µM [cytotoxic, partial curve, poor fit] | – |
| CN(C)c1ccc(CCC2C=Cc3ccccc32)cc1 (centres undefined) | inactive | – |
| CCOC(=O)NC(NC(=S)Nc1ccc(OCC)cc1)C(Cl)(Cl)Cl (centres undefined) | inconclusive: 23.1 µM [rising, single point] | – |

4 records drawn at random from those above:

| SMILES | Potency | activity change, negative = cytotoxic |
| --- | --- | --- |
| Cc1ccc(-c2nnn(CC(=O)N(CC(=O)NC3CCCC3)c3cccc(F)c3)n2)o1 | inconclusive: 20.6 µM [rising, single point] | – |
| O=C1NC(Cc2ccc(O)cc2)c2nc3ccc(Br)cc3c(=O)n2-c2cc3ccccc3cc21 (centres undefined) | inconclusive: 23.1 µM [cytotoxic, single point] | – |
| Cc1ccc(-c2noc(CCC(=O)NCC3CCN(Cc4cccc(C)c4)CC3)n2)cc1 | inconclusive: 29.1 µM [cytotoxic, single point] | – |
| COc1ccc(-c2nc3ccccc3o2)cc1NC(=O)c1ccc(-c2cccc(Cl)c2C)o1 | inactive | – |
